Measured values as given in patent publication US20240240147A1, “CHIMERIC ANTIGEN RECEPTOR-MODIFIED GRANULOCYTE-MACROPHAGE PROGENITORS FOR CANCER IMMUNOTHERAPY” (University of Southern California, priority 2021, published 2024).
For at least one compound, name, drawing or mass did not settle the structure.

Tested on: GMPs
Assay: Expansion of sorted GMPs in modified SCF/2i, B-Raf inhibitor replacement
Assay type: cell-based
Settings: SB590885 0.5 μM replacing GDC-0879 in modified SCF/2i

Structure (SMILES): CN(C)CCOc1ccc(-c2nc(-c3ccncc3)c(-c3ccc4c(c3)CC/C4=N\O)[nH]2)cc1 [SB590885]
- GMP proliferation rate: slightly increase
